Source: article PMC12040169 (PLOS Biology, 2025)
The other results are listed elsewhere or left out.

Test system: T1, CTL2-GFP (C. trachomatis L2/434/Bu, GFP-expressing)
T1 construct: L2/434/Bu, GFP-expressing
Parameters: species or system HeLa; Intracellular C. trachomatis growth in HeLa cells, bulk GFP fluorescence relative to DMSO
Details: bulk GFP, single well; 28.5 h, 10 µM; inhibitor

Row | Compound | % of control remaining [%]
1 | CC1CCN(CCNC(=O)CCc2nc3ccc(Cl)cc3[nH]2)CC1 [CBK281599] | 137.247
2 | O=C(NCCCN1CCOCC1)C1CCCN1S(=O)(=O)c1ccc(Cl)cc1 (stereo not shown) [CBK269944] | 135.547
3 | CCCC(=O)N1CCC(c2nc3ccc(F)cc3cc2N)CC1 [CBK284655] | 139.87
4 | Cc1cc(=O)[nH]c(SCc2nc3ccccn3c2Br)n1 [CBK296063] | 71.8417
5 | O=[N+]([O-])c1ccc(NCCCNS(=O)(=O)c2ccc3ccccc3c2)c(Cl)c1 [CBK262006] | 115.276
6 | COc1ccccc1CN1CCC(Cc2ccccc2-c2ccccc2)(C(N)=O)CC1 [CBK285719] | 130.504
7 | OC(CN1CCC(O)(c2cccc(C(F)(F)F)c2)CC1)c1ccccc1 (stereo not shown) [CBK286324] | 95.8167
8 | COc1ccc(OCC(=O)Nc2ccc3c(c2)nc2n3CCN(Cc3ccccc3)C2)cc1 [CBK266989] | 153.151
9 | Fc1ccc(-c2cncc(Nc3cccc(C(F)(F)F)c3)n2)c(F)c1 [CBK065763] | 192.176
10 | Cn1c(SCc2cccc3ccccc23)nnc1-c1ccc(NC(=O)/C=C/c2ccccc2)cc1 [CBK265034] | 116.85
11 | CC1Cc2cc(-c3cncn3CC(=O)NC(C)(C)C)ccc2N1C (stereo not shown) [CBK281699] | 127.789
12 | O=c1c([N+](=O)[O-])c(O)c2ccccc2n1Cc1ccccc1 [CBK291182] | 149.393
13 | C=C(C)Cn1c(-c2ccc(N)cc2)nc2ccccc21 [CBK287581] | 120.777
14 | C[C@@H](Nc1cncc(-c2ccccc2CO)n1)c1ccccc1 [CBK065543] | 150.522
15 | COc1nc2ccn(CC(O)CO)c(=O)c2cc1C#N (stereo not shown) [CBK307251] | 114.695
16 | Cc1ccc(C(=O)N2CCC(c3nc4ccccc4s3)CC2)cc1NS(C)(=O)=O [CBK254629] | 147.378
17 | Cc1cc(C)n(-c2ccnc(NCCc3cccnc3)n2)n1 [CBK288615] | 112.376
18 | CC1=C[C@@H](CO)[C@H](C(C)C)C[C@H]1CC(=O)N1CCN(CCO)CC1 [CBK289217] | 135.193
19 | O=C(Cn1cc(-c2ccc(CN3CCCCC3)cc2)nn1)NCc1ccc(C2CCC2)cc1 [CBK167547] | 106.328
20 | c1cc(-c2cnc(N3CCOCC3)c3nccn23)c2cccnc2c1 [CBK091270] | 105.512
21 | CNCc1cc(Br)c(OCC(=O)Nc2ccccc2OC)c(OC)c1 [CBK107772] | 110.124
22 | O=C(Nc1cc(Cl)ccc1C(=O)NC1CCC(O)CC1)c1cccs1 (stereo not shown) [CBK306186] | 156.571

Sorted by heavy-atom count (rising): three of the compounds above
Row | Compound | % of control remaining [%]
21 | CNCc1cc(Br)c(OCC(=O)Nc2ccccc2OC)c(OC)c1 [CBK107772] | 110.124
7 | OC(CN1CCC(O)(c2cccc(C(F)(F)F)c2)CC1)c1ccccc1 (stereo not shown) [CBK286324] | 95.8167
8 | COc1ccc(OCC(=O)Nc2ccc3c(c2)nc2n3CCN(Cc3ccccc3)C2)cc1 [CBK266989] | 153.151
